Measured values taken from the supplement of paper PMC10849652.
The list shows a part of the results.

Chains of the proteins cited; added tags and fusions are not shown. Lines headed by an entry give the natural chain unless they say otherwise; changes in a name come on top.
UniProt Q7RTN6: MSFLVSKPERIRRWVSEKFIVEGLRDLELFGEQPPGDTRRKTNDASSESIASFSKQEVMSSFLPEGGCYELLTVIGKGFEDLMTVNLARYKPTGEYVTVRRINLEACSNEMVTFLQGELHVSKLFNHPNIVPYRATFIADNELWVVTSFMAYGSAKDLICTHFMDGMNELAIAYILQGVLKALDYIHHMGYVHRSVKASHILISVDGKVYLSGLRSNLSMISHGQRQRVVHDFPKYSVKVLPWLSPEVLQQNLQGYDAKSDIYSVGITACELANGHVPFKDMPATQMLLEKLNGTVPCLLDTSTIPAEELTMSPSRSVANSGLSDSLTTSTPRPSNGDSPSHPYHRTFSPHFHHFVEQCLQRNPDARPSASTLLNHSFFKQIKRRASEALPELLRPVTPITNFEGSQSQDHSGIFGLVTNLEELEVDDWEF
UniProt Q92797: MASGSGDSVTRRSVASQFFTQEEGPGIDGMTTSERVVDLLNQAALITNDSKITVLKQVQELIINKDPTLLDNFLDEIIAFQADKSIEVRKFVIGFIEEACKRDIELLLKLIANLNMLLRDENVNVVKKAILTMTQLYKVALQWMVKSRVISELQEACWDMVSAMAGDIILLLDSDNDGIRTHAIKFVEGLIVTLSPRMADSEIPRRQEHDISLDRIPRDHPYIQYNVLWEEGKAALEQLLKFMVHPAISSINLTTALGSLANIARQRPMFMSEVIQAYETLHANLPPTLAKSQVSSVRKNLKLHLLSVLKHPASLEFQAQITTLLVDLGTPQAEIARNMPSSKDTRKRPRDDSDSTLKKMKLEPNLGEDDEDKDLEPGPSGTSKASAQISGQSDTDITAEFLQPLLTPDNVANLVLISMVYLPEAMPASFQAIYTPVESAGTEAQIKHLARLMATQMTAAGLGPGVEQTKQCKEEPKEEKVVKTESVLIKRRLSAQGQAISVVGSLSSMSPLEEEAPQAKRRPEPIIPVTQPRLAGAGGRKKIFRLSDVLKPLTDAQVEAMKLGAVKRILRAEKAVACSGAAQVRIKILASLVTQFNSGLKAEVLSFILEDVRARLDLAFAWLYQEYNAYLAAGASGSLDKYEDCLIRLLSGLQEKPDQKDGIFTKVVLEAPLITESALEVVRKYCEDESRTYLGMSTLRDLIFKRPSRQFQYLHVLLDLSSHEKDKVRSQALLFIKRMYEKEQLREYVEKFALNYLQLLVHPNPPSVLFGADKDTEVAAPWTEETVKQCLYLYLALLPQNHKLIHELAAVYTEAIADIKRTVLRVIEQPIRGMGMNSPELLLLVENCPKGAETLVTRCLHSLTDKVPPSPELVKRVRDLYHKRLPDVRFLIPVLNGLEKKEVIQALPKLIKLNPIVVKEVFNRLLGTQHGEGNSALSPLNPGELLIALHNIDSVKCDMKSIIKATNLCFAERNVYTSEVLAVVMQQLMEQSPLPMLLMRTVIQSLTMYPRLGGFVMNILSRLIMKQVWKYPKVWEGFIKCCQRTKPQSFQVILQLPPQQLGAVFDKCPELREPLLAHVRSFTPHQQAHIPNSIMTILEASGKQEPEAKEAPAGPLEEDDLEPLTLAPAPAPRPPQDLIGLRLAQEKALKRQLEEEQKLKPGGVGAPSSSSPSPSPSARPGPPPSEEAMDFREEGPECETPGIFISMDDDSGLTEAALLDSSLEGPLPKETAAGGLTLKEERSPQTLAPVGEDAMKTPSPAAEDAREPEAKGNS
UniProt Q86Y82: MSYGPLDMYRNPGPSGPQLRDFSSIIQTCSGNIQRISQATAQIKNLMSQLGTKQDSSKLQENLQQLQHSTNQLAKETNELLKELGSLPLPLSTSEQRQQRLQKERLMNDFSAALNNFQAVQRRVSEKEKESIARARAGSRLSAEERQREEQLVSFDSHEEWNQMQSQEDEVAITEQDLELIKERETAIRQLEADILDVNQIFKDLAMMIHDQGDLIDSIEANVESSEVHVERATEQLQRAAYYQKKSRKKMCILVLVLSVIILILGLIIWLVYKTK
UniProt Q6ZWJ1: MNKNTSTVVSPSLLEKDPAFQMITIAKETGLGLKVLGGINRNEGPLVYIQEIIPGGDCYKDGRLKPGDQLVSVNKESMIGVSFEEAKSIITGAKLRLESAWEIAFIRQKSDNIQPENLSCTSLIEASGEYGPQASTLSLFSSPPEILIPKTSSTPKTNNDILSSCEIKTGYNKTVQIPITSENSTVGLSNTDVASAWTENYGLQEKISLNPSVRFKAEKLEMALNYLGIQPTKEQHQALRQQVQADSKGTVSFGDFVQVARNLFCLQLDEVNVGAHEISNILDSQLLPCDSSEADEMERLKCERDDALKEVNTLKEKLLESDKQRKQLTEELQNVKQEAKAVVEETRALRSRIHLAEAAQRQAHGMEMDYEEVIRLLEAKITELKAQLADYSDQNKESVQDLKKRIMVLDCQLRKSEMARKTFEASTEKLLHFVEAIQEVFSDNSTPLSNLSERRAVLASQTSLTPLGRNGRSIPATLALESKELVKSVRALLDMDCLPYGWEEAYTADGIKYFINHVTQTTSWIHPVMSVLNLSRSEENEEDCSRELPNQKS
UniProt Q9Y2Z0: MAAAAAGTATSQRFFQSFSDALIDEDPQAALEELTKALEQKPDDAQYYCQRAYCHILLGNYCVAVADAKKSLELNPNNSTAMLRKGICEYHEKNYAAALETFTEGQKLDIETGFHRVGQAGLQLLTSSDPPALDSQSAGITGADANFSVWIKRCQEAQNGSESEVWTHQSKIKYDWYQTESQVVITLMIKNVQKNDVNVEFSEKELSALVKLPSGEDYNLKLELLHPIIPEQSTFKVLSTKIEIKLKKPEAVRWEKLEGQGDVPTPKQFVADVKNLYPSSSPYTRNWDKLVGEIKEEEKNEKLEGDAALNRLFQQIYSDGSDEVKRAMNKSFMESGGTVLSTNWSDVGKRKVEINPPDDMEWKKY
UniProt Q15833: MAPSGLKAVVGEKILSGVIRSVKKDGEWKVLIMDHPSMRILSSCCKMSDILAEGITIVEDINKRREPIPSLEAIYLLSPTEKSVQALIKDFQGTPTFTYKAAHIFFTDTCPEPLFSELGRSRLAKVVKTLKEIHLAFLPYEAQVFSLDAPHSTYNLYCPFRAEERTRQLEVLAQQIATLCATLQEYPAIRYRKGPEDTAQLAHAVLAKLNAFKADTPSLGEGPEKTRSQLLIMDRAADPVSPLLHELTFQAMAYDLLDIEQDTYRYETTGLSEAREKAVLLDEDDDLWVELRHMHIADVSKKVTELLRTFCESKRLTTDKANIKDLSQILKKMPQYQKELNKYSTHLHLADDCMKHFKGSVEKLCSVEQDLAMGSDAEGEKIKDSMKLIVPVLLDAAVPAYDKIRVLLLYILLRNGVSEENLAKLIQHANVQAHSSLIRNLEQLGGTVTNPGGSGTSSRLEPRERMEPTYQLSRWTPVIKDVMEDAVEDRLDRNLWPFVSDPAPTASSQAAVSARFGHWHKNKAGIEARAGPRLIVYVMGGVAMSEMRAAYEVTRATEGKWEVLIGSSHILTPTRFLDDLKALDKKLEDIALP
UniProt P63165, whole entry, looked up: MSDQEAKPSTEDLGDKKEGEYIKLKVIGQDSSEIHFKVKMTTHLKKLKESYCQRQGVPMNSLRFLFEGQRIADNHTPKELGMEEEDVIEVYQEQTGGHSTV

What was measured:
Assay in all cases: log2 fold change, soluble protein after heating vs DMSO (PISA); higher = thermal stabilisation; K562 lysate, 10 uM; active = over 0.2 and 3.5 SD of the protein, either way, in both replicates (recomputed)
[1] = compound: C#Cc1cccc(Nc2ncnc3cc(OCCOC)c(OCCOC)cc23)c1 [erlotinib]
Procedure, shortened: (§1)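 K562 pellets were dounce-homogenised in PBS pH 7.4 containing 1 mM MgCl2, and the crude extract, at 1 mg/mL protein, was exposed to 10 μM compound for 30 min. Aliquots were heated for 3 min across 48°C-58°C, pooled, brought to 0.5% NP-40 at 4°C and spun at 21,000xg for 90 min, with the supernatant taken as soluble protein. TMTpro 16plex LC-MS/MS with equalised channel sums quantified that protein. Values are log-two fold changes in thermal stability relative to solvent controls, taken from duplicates.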

[2] = compound: C/C(=N\NC(=O)C1=CC(=CC=C1)S(=O)(=O)N2CCOCC2)/C3=C(C=CC(=C3)Cl)O
Procedure, shortened: as §1

[3] = compound: C1=CC(=CC=C1C2=NC3=C(N2)C=C(C=C3)C(=O)N)OC4=CC=C(C=C4)Cl
Procedure, shortened: as §1

[4] = compound: C1=CC2=C(C=CC(=C2)/C=C\3/C(=O)NC(=NCC4=CC=CS4)S3)N=C1
Procedure, shortened: as §1

[5] = compound: C1=CC2=NC=CN=C2C=C1/C=C/3\C(=O)NC(=O)S3
Procedure, shortened: as §1

[6] = compound: C1=CC=C(C=C1)C2=NC(=C(N2)C3=CC=NC=C3)C4=CC(=C(C=C4)Cl)O
Procedure, shortened: as §1

[7] = compound: C1=CC=C2C(=C1)C3=NNC4=CC=CC(=C43)C2=O
Procedure, shortened: as §1

[8] = compound: C1CCN(C1)C(=O)NC2=CC=CC(=C2)NC3=NC=C(C(=N3)NCCC4=CN=CN4)Br
Procedure, shortened: as §1

[9] = compound: C1CN(CCC1(CC2=CC=C(C=C2)Cl)N)C3=NC=NC4=C3C=CN4
Procedure, shortened: as §1

[10] = compound: C1COCCN1CCN2C3=CC=CC=C3N=C2NC(=O)C4=CC(=CC=C4)[N+](=O)[O-] [IRAK-1-4 Inhibitor I]
Procedure, shortened: as §1

[11] = compound: C=CC(=O)N1CCC[C@@H](n2nc(-c3ccc(Oc4ccccc4)cc3)c3c(N)ncnc32)C1 [ibrutinib]
Procedure, shortened: as §1

[12] = compound: CC(=O)c1cnc2ccc(-c3cc(Cl)c(O)c(Cl)c3)nc2c1N[C@H]1CC[C@H](CN(C)C)CC1
Procedure, shortened: as §1

[13] = compound: CC(C)(C)Cn1c(N)nc2ccc(-c3[nH]c(C(C)(C)C)nc3-c3ccc(F)cc3)nc21 [ralimetinib]
Procedure, shortened: as §1

[14] = compound: CC(C)(O)CC(=O)NCCn1ccc2ncnc(Nc3ccc(Oc4cccc(C(F)(F)F)c4)c(Cl)c3)c21
Procedure, shortened: as §1

[15] = compound: CC(C)C1=C2N=C(C=C(N2N=C1)NCC3=CC=CC=C3)NCCCCCCN
Procedure, shortened: as §1

[16] = compound: CC1=C(C(CC(=O)N1)C2=CC=C(C=C2)C(F)(F)F)C(=O)NC3=C(C=C4C(=C3)C=NN4)F
Procedure, shortened: as §1

[17] = compound: CC1=C(C2=C(C=C1)C(=O)C3=CC=CC=C3N2CCCN)C
Procedure, shortened: as §1

[18] = compound: CC1=C(C=C(C=C1)NC(=O)C2=CC(=CC=C2)C(C)(C)C#N)NC3=CC4=C(C=C3)N=CN(C4=O)C
Procedure, shortened: as §1

[19] = compound: CC1=C(C=C(C=C1)NC(=O)C2=CC(=CC=C2)N(C)C)NC(=O)C3=CC=C(C=C3)O
Procedure, shortened: as §1

[20] = compound: CC1=CC=C(C=C1)SC2=C3C=C(SC3=CN=C2)C(=O)N
Procedure, shortened: as §1

Measured: log2 fold change

STRADA (UniProt Q7RTN6)
inactive: [1] 0.025 | [2] -0.016 | [3] -0.003 | [4] 0.003 | [5] -0.046 | [6] 0.015 | [7] 0.039 | [8] 0.044 | [9] -0.03 | [10] 0.069 | [11] -0.019 | [12] -0.156 | [13] 0.007 | [14] -0.044 | [15] -0.003 | [16] 0.139 | [17] 0.026 | [18] -0.005 | [19] -0.002 | [20] 0.054

SYMPK (UniProt Q92797)
inactive: [1] 0.016 | [2] 0.012 | [3] -0.008 | [4] 0.017 | [5] -0.034 | [6] 0.002 | [7] -0.031 | [8] -0.014 | [9] 0.022 | [10] 0.007 | [11] 0.009 | [12] -0.02 | [13] 0.004 | [14] -0.053 | [15] -0.014 | [16] 0.007 | [17] -0.015 | [18] -0.01 | [19] 0.033 | [20] 0.006

STX12 (UniProt Q86Y82)
inactive: [1] -0.039 | [2] -0.011 | [3] 0.038 | [4] -0.043 | [5] -0.028 | [6] -0.009 | [7] -0.043 | [8] 0.029 | [9] 0.039 | [10] 0.006 | [11] -0.018 | [12] -0.035 | [13] 0.001 | [14] -0.005 | [15] -0.017 | [16] -0.018 | [17] 0.019 | [18] 0.003 | [19] -0.008 | [20] -0.03

STXBP4 (UniProt Q6ZWJ1)
inactive: [1] -0.014 | [2] -0.015 | [3] 0.007 | [4] 0.051 | [5] 0.017 | [6] 0.018 | [7] -0.004 | [8] -0.019 | [9] -0.028 | [10] 0.018 | [11] 0.032 | [12] 0.007 | [13] 0 | [14] -0.015 | [15] -0.054 | [16] 0.003 | [17] -0.022 | [18] 0.05 | [19] 0.019 | [20] 0.04

SUGT1 isoform 2 (UniProt Q9Y2Z0)
inactive: [1] -0.111 | [2] 0.047 | [3] 0.09 | [4] -0.033 | [5] -0.097 | [6] -0.025 | [7] -0.083 | [8] 0.029 | [9] 0.026 | [10] 0.005 | [11] 0.257 | [12] 0.025 | [13] 0.037 | [14] 0.071 | [15] -0.069 | [16] -0.043 | [17] 0.011 | [18] 0.081 | [19] 0.008 | [20] 0.02

TACC3 (UniProt Q9Y6A5)
inactive: [1] -0.015 | [2] 0.022 | [3] 0.033 | [4] 0.027 | [5] -0.025 | [6] 0.01 | [7] 0.03 | [8] 0.011 | [9] -0.022 | [10] 0.01 | [11] -0.001 | [12] 0 | [13] 0.006 | [14] 0.014 | [15] -0.004 | [16] -0.005 | [17] 0.011 | [18] -0.031 | [19] -0.004 | [20] -0.016

STXBP2 (UniProt Q15833)
inactive: [1] -0.002 | [2] 0.042 | [3] -0.021 | [4] 0.019 | [5] -0.001 | [6] -0.004 | [7] 0.001 | [8] 0.011 | [9] -0.002 | [10] 0.017 | [11] 0.009 | [12] 0.009 | [13] -0.003 | [14] 0.007 | [15] -0.005 | [16] -0.02 | [17] 0.005 | [18] 0.002 | [19] 0.039 | [20] 0.004

SUMO1 (UniProt P63165)
inactive: [1] -0.055 | [2] 0 | [3] 0.009 | [4] 0.103 | [5] 0.013 | [6] -0.006 | [7] 0.06 | [8] -0.006 | [9] -0.061 | [10] -0.014 | [11] -0.015 | [12] 0.029 | [13] 0.023 | [14] -0.001 | [15] -0.025 | [16] -0.042 | [17] 0.059 | [18] 0.015 | [19] -0.02 | [20] 0.004
